# Results from PubChem BioAssay AID1347426 (Functional Genomics Laboratory (NCATS/FGL), 2020).
# About 1,400 (4.5%) of roughly 31,000 sequences were called active.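 The calls were made as follows: active = median seed-adjusted z-score above 1 or below -1; inactive = the rest.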 Some of the results follow.
# Assay: Novel Modifiers of Survival Motor Neuron (SMN) Protein: Gene Identification via Genome-wide siRNA Screen;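 also: luminescence tracks full-length SMN protein made from the SMN2 reporter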
# Details: HEK293T SMN2-luciferase reporter, siRNA knockdown, 72 h; actives lie on both sides
# Summary of the method: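 Genome-wide siRNA screen (10418 genes, 3 siRNAs each, 1 pmol per well) by reverse transfection in HEK293T cells stably carrying an SMN2-luciferase reporter; luminescence after 72 hours, normalized to negative-control siRNA, log10-transformed, MAD-scored.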
row,Sequence,median seed-adjusted z-score
1,GCCUUGACGAUACAGCUAATT against KRAS,inactive: -0.0469
2,GCUAUGGAGUGGUGCAGAATT against TSNARE1,inactive: -0.0516
3,GCUCGGCUCUUUGAACGAUTT against IPO8,inactive: -0.349
4,CUCUAGGAGUGACCACGAATT against LYPLAL1,inactive: -0.425
5,CUGCUGACCUCAUACCAGATT against RASGRP4,inactive: 0.162
6,AGUACGUCAAGAUCCUGUATT against EPS8L2,inactive: -0.497
7,CGACAAGAAUGAUAAGGCATT against HSP90AB1,inactive: 0
8,GCAGCGUAGUUUUUGCGGATT against DOCK2,inactive: 0.151
9,CGCUGAAACCCGAUUCCUATT against ANPEP,inactive: 0.252
10,GGAAAAGACAUGUAUCACATT against IRAK1,inactive: -0.232
11,CUAUCUCAUUUGAUCUAUATT against SPRY3,inactive: -0.126
12,GAAAUGGAGUUACAUCCAUTT against PIGF,inactive: -0.239
13,GGCUAUCAGUCUUACUGCATT against DNMT3B,inactive: 0.0761
14,CAACGUAAGGAUAAGGAUATT against ITSN2,inactive: 0.933
15,GAAUACCCGUUCUAUGUAATT against OPN3,inactive: -0.916
16,CAGCGUAUUUGGUAUGGUUTT against SLC5A8,inactive: 0.441
17,GAACAAAAUAGACCUCUUATT against EEFSEC,inactive: -0.000421
18,CCACAUAAAGCAUCGUUAUTT against ABHD1,inactive: 0.336
19,AAACCAGGACGAAAGACAATT against CDX2,inactive: 0.23
20,CCUUACUACUGGGUAGGAATT against GPD2,inactive: 0.0606
21,CCAACGGUCCUGUCCAAAATT against SEC24A,inactive: 0.038
22,GCACCAUGAAGAUCGCUGATT against GMIP,inactive: 0.0686

row,Sequence,median seed-adjusted z-score
1,AGGUUUCAUGUUCAAGGUATT against BIN1,inactive: 0
2,CCUGUACUCUUACUACCGATT against TRPC7,inactive: 0.146
3,CCAUCAAGCUCUACAAGGATT against TOP3B,active: -1.11
4,GUUGGAAAAUCUUAAAGAATT against ENOX2,inactive: 0.0233
5,CGCUGCACACCACUCCUAATT against DNASE1L1,inactive: 0.542
6,CUCGGGCCUUCAUUCAAUATT against USP29,inactive: 0.00928
7,CUUUCUAUAUAGCGAAUUATT against AKAP4,inactive: 0.116
8,GAAGCAAGCUCGUCAUUGATT against ALG1,inactive: 0
9,CCACAUCUACCAUCACUCUTT against PCDH19,inactive: 0
10,CCAUACUGGUUGAAAAUUGTT against FCAR,inactive: -0.106
11,CAAAACUAGUAAUCCUUAUTT against CDK8,active: -1.47
12,GGCUUUGAAUUCAAUCUAUTT against GPR149,inactive: -0.186
13,CGAAGAUCCCAACCAAGCATT against EPHA4,inactive: -0.0739
14,CAAAAGAACGAGUAUCGAUTT against ATP8B2,inactive: -0.268
15,CAGAUACUAAUAUACAGAATT against DGKG,inactive: 0.227
16,CGAUGAUAGUGGCUCCGGATT against TSC22D4,inactive: -0.508
17,CGCUCCAGGAGAUAUAUAATT against AGPAT3,inactive: 0
18,GAUGGAAGAUGGAACGGUUTT against CDC42BPA,inactive: 0.257
19,CCUUCCUGCGUGUACCAAATT against NR4A3,inactive: -0.205
20,GGUAAUAAAUGGGUUGGAATT against PTGR2,inactive: 0.14
21,GAGUGAUAUGAAACGGAAATT against NVL,inactive: 0.701
22,CAGGCUUUCUAAUACGACUTT against DCHS2,inactive: 0

row,Sequence,median seed-adjusted z-score
1,GCAUUCCCAACUUAUCAUATT against ZFP3,inactive: 0
2,CGGCUAUUUUGUCAGCAAATT against ABR,inactive: 0.314
3,CGUCCUGUCUUGUAGUCUUTT against TRIM65,inactive: -0.599
4,CCGUCAUUCGUGCCCAUUATT against ST8SIA3,inactive: -0.848
5,GAGUCGAACUUUACUGUCUTT against MLL2,active: -2.11
6,GCUCUACUAUUUCUACGAUTT against SPPL2B,inactive: 0.0324
7,AGUGAGUGCUUAGGGCAAATT against ADRB3,inactive: 0.17
8,GGUGAGUAAGGAAAGCGAATT against FLT1,inactive: 0.407
9,CCCUUCUUGUUUACAUGAATT against SLC25A43,inactive: 0
10,CAUACCUCAUUAUUACCUUTT against DLAT,inactive: 0
11,ACUUCACAGCGAGCACGGATT against ASGR1,inactive: -0.128
12,UGCCGUUUUUCCUUAGAAATT against BZRPL1,inactive: 0.0787
13,GGCAUUAACAGAUCAACAATT against TOMM70A,inactive: 0.0717
14,GGCUAUUUCCUGUAUGGGATT against CAND1,inactive: 0.157
15,GCCUUUUCUGGGAACUAUUTT against CYP3A43,inactive: -0.599
16,GCCCUGCAUUUGCGAUGAATT against ZNF169,inactive: 0
17,GGGAUGCUUUGUGGACUCATT against KREMEN2,inactive: -0.0883
18,GGACUUUAUAUGUCGGCAATT against TTC35,inactive: -0.0898
19,CCACUAUGGGUAAUUUAAATT against SALL3,inactive: -0.133
20,AGCCCUUUCCUGAUAACUATT against PIGC,inactive: -0.3
21,CUACUUAUCUGGACAUGGATT against OGFOD1,inactive: 0.442
22,CGUUACCCAUUGCUACGAATT against RNF145,inactive: -0.554

row,Sequence,median seed-adjusted z-score
1,GCUUUACCCUGAGAGAAUATT against ZNF498,inactive: -0.476
2,CUGUUGCACUGAACGAAGATT against DSG2,inactive: -0.285
3,GGAACUCAUUUGGUGGAGATT against LBXCOR1,inactive: 0.0938
4,GGUAAGAAAUUCAAAAUGATT against ZBTB43,inactive: 0.143
5,GCUCUGCAUAAUGACCUAATT against REXO4,inactive: -0.166
6,CAGAGUCUUUCAUUCGAAUTT against SPATA5,active: -1.04
7,CAUCAUCAGGAAACUCUAATT against CASP2,inactive: 0.421
8,GGAAUAACAUGAUUGUUAUTT against UGT1A6,inactive: -0.0939
9,GAUUAUAGUUUGUUCCGAATT against USP28,inactive: 0.275
10,CGCUAACUGUCACAAACUUTT against DOCK6,inactive: 0.0378
11,GGAACUUAAUGAGCAUGCATT against TUBE1,inactive: -0.00933
12,CCAUCAUCCGGGAUGAGGATT against NPEPL1,active: 1.12
13,UGAAGAUGAGGGACCCUAATT against LOXL4,inactive: -0.591
14,AGAUACCAACGACCCAUUATT against KCNJ5,inactive: 0.0644
15,GCACUGCACAGAUACACGUTT against PCDHGB4,inactive: 0.176
16,CCACGACCAUGAGAAUGGATT against MAPKAPK5,inactive: 0.489
17,GAUCAUCCCUUGUCUCUUUTT against CHRNA6,inactive: 0.21
18,CACUGGUCAUGGAAAACGATT against KLK4,inactive: 0.437
19,CAAUAUCACUACUCUUUAATT against FEV,inactive: 0.174
20,GCACGUUUUCAAUAUCAUATT against POLE2,inactive: -0.584
21,GUACCCAAGUAACAACUGUTT against CXCL11,inactive: -0.135
22,GGAUAUGCAUGCAAUCAAATT against ADAM23,inactive: -0.0279

row,Sequence,median seed-adjusted z-score
1,GAGCAAGGGUUGUUUGGGATT against THAP8,inactive: -0.872
2,CCACUUCAAGAAAACUUCATT against ZSCAN22,inactive: 0.277
3,CCAGUACCAAAGUUGAUAATT against RB1,inactive: 0.49
4,AGAGCCUUAUGAUCGAGCATT against SGK2,inactive: 0.306
5,GCAGCUCAUUCAGACCUAUTT against PLCD3,inactive: 0.228
6,GCUUGUGCCCAGAAUUUCATT against ADCK4,inactive: -0.181
7,CAAUCACUGUGGAAUAUCATT against INPPL1,inactive: 0.199
8,AGGUCAAGCUUAGUGACAATT against ZDHHC8,inactive: 0
9,GGAGUAACUGAGAUAGAAATT against AGPAT3,inactive: 0
10,GGAUCUACUCGACUCCCUUTT against HOXC6,inactive: -0.137
11,GAAAAUGUGGGAUCAAGAATT against COQ7,inactive: 0.159
12,CAGGUCGGAUGGUAAAUUUTT against MFHAS1,inactive: -0.267
13,GCCUUAAUGUAAUACAGCATT against NANOG,inactive: -0.106
14,CUUUGUCAGAGAUCACUUATT against PIPOX,active: 1.06
15,CACUAUGGAUGCUAUCAAATT against COL1A2,inactive: 0.481
16,CCGUGAAUAUGAUUGCUAUTT against LIG4,inactive: 0.576
17,CUACCGCAAUGAAUGUGCATT against FST,inactive: 0.357
18,GGAUCUUCAAAGGAUCGGATT against PKN2,inactive: 0.383
19,GCUGGUUCAUUUUUCAGAATT against KMO,inactive: 0.443
20,GAUUUUUGGGAAUACUAUATT against MCM9,inactive: -0.709

# 4 entries picked at random from those above:
row,Sequence,median seed-adjusted z-score
12,CAGGUCGGAUGGUAAAUUUTT against MFHAS1,inactive: -0.267
14,CUUUGUCAGAGAUCACUUATT against PIPOX,active: 1.06
12,CCAUCAUCCGGGAUGAGGATT against NPEPL1,active: 1.12
15,GCACUGCACAGAUACACGUTT against PCDHGB4,inactive: 0.176
